Experimental data: PubChem BioAssay AID493014 (National Center for Advancing Translational Sciences (NCATS), 2011)
Some of the results follow. These are further read-outs of the screen, such as a control signal, another cell line or another target. No call is given for them. Compounds called inactive in the main read-out are mostly missing here. Words in brackets tell the shape of the fitted curve; partial curves, single points and poor fits give uncertain potencies.

Assay: qHTS Assay to Find Inhibitors of Chronic Active B-Cell Receptor Signaling
Details: ABC-DLBCL IkBa-CBG/CBR reporter, luminescence ratio (green luciferase fused to IkBa over red control in TMD8 lymphoma cells), 4 h
Excerpt: NIH Molecular Libraries Probe Production Network [MLPCN] NIH Chemical Genomics Center [NCGC] MLPCN Grant: 1 R03 DA031086-01A1 PI Name: Dr. R. Eric Davis NCGC Assay Overview: Diffuse large B-cell lymphoma (DLBCL) is the most common category of non-Hodgkin lymphoma, with ~20,000 new cases per year in the United States. DLBCL should be regarded as a collection of different neoplasms. Microarray gene expression analysis has defined two principal types of DLBCL, named for their similarity to normal B cell stages or activation states: a germinal center B-cell (GCB) type, and an activated B-cell (ABC) type. In ABC-DLBCL, a constitutive high-level activity of the NF-kappaB family of transcription factors has been observed (1) and NF-kappaB target genes are more highly expressed in ABC primary tumors than in GCB tumors. Functional studies have shown a constitutive high-level activity of the IkappaB (inhibitor of kappa-B) kinase (IKK) complex. […] Further analysis of DLBCL primary tumors for NF-kappaB target gene expression imply that although CARD11 is required for constitutive IKK activity in all ABC-DLBCL lines, mutations in CARD11 may be the root cause of IKK activation only in lines or tumors with such mutations. In other words, CARD11 mutations may explain NF-kappaB activation in only 10% of ABC-DLBCL cases. […] This process has been termed 'chronic active BCR signaling' (CABS). The goal of this screen is to find small-molecule inhibitors of the CABS pathway found in ABC-DLBCL lines using a cell-based assay that measures IkappaBalpa stability, which has already been extensively validated in the OCI-Ly3 line (PubChem AID:445; REF: 4). […] The assay uses green (CBG68) and red (CBR) emitting beetle luciferases [Chroma-GloTM developed by Promega Corp.] where the green luciferase is fused to IkappaBalpha and the red luciferase is present in its native state. Both luciferase genes are stably present in the TMD8 human ABC DLBCL cell line, but their expression is under the control of tetracycline-inducible promoters. Following the addition of doxycycline to induce expression of the luciferases, the green luminescence in control cultures rises only slowly because the CBG fusion partner IkappaBalpha is targeted by IKK activity for rapid degradation. In contrast, green luminescence rises rapidly in the presence of proteasome inhibitors or IKK inhibitors. The rise in red luminescence of CBR is not affected by proteasome or IKK inhibitors, and serves as normalization for cell number and nonspecific effects. Compounds were screened as a concentration-titration series that ranged from 46 uM to 3 nM.
NCGC Assay Protocol Summary: Cells were seeded in 1536-well plates at 5000 cells/4uL in IMDM medium containing 0.5% FBS, w/o phenol red, 1% penicillin/streptomycin. Then, 23 nL of compounds or DMSO were delivered to each well using a pin tool. One uL 20ng/ml doxycycline was then dispensed into white solid 1536-well plates and the plates were incubated at 37C/5% C02 in a cell incubator for 4 hrs. Then 4 uL luminescent substrate mix (in-house prepared: 150 mM Tris-Cl, pH 7.6, 3 mM MgCl2, 1% Triton X-100, 5 mM DTT, 0.2 mM CoA, 0.15 mM ATP, 5 mM D-luciferin, final concentrations) was added to each well. The plate was incubated at r.t. for 10-15 min. The plates were measured on a ViewLux plate reader for green luminescence (540/20 nm filter) and red luminescence (618/8 nm filter). The green and red luminescent signals were corrected for red and green luminescence filter overlap using previously determined filter calibration constants (determined using the procedure outlined in the Promega Technical Manual; REF 4). The %Activity was determined from the ratio of corrected green/red luminescent values. MG132 were used as control. […] Red luminescent %Activity was normalized to the difference between red luminesence in basal cells (0%Activity) and zero luminescence (-100% Activity). […]

[1] = measured here: CBR red luminescence, cell number
[2] = measured here: IkBa-CBG green luminescence

Row | SMILES | AC50 [1] | AC50 [2]
1 | COc1ccc(-c2noc(-c3ccccc3-c3ccccc3)n2)cc1OC | 20.6 µM [rising, single point] | –
2 | C/C(=N\Nc1nc(N)cc(Cl)n1)c1cccc([N+](=O)[O-])c1 | 0.251 µM [rising, full curve, poor fit] | –
3 | O=C(N/N=C/c1ccccn1)c1cccc([N+](=O)[O-])c1 | 35.5 µM [rising, single point] | –
4 | COc1cc(OC)cc(C(=O)OCC(=O)NC2CCCCCC2)c1 | 16.4 µM [rising, partial curve, poor fit] | –
5 | Cc1cc(Cl)ccc1OCC(=O)N1CCCN(C(=O)COc2ccc(Cl)cc2C)CC1 | 29.1 µM [falling, single point] | –
6 | CC(=O)N1CCC2(CC1)NC(=O)N(c1ccccc1)N2 | 14.1 µM [rising, single point] | –
7 | O=C(Nc1cccc(NC(=O)c2ccc(Cl)cc2Cl)c1)c1cccnc1 | 10 µM [falling, partial curve] | –
8 | Cc1nc(-c2ccc(Cl)cc2)sc1C1(C)CC(c2ccc(OC(F)(F)F)cc2)=NO1 (stereo not drawn) | 7.08 µM [rising, partial curve, poor fit] | –
9 | COc1ccc(/C(N)=N/OC(=O)C2CCCCC2)cc1 | 2 µM [rising, partial curve, poor fit] | –
10 | Cc1cccc(C(=O)Nc2ccccc2C(=O)OCC(=O)Nc2ccc(C#N)cc2)c1 | 1.3 µM [falling, full curve] | –
11 | COc1ccc(-c2cn3ccccc3n2)cc1[N+](=O)[O-] | 10.3 µM [rising, partial curve, poor fit] | –
12 | CCC(C)C(=O)Nc1ccc([N+](=O)[O-])cc1OC (stereo not drawn) | 7.94 µM [rising, partial curve, poor fit] | –
13 | Nc1nc(SCC(=O)c2cccs2)n[nH]1 | 6.31 µM [falling, full curve, poor fit] | –
14 | Cc1ccc2c(=O)oc(N(C)C)nc2c1 | 35.5 µM [falling, single point] | –
15 | CCCSc1nsc(SCCC)c1C(N)=O | 14.1 µM [rising, partial curve] | –
16 | Oc1ccc(/C=N/Nc2cc(N3CCCC3)nc(N3CCCC3)n2)cc1 | 35.5 µM [falling, single point] | –
17 | COc1ccccc1OCCCCOc1ccccc1F | 0.355 µM [rising, full curve, poor fit] | –
18 | COc1ccc(C(=O)NC(=S)N2CCNC(=O)C2CC(=O)OC(C)C)cc1 (stereo not drawn) | 5.01 µM [rising, full curve, poor fit] | –
19 | O=C(c1ccc(S(=O)(=O)Cc2ccccc2Cl)c([N+](=O)[O-])c1)N1CCN(c2ccccn2)CC1 | 11.2 µM [falling, single point] | –
20 | FC(F)(F)c1cc(CCN2C(=S)NC[C@@H]2CC2CCCCC2)cc(C(F)(F)F)c1 | 5.62 µM [rising, single point] | 5.01 µM [falling, single point]
21 | CC(=O)Nc1cccc(NC(=O)Cc2nc(-c3ccccc3)sc2-c2ccc(C)cc2)c1 | 2.91 µM [rising, partial curve] | –

Row | SMILES | AC50 [1] | AC50 [2]
22 | CNC(=O)Cn1nc(-c2ccc(Cl)cc2)c2ccccc2c1=O | 2.51 µM [rising, partial curve] | –
23 | COc1ccnc(CSC(N)=Nc2ccccc2C(F)(F)F)c1 | – | 23.1 µM [falling, partial curve, poor fit]
24 | COc1cc(OC)c(C(=O)NC2CCCCCC2)cc1OC | 6.51 µM [falling, single point] | 6.51 µM [rising, partial curve, poor fit]
25 | COC(=O)c1c(-c2ccccc2)csc1NC(=O)c1ccco1 | 1.41 µM [rising, full curve, poor fit] | –
26 | Cc1csc(NC(=O)/C=C/c2ccc3c(c2)OCO3)n1 | 13 µM [falling, partial curve] | 2.91 µM [rising, full curve, poor fit]
27 | CCCSc1nc(=O)n2cccc(C)c2n1 | 13 µM [rising, partial curve] | 20.6 µM [falling, partial curve]
28 | C=CC(=O)N(CCC)C(c1ccccc1)c1ccccc1OC (stereo not drawn) | 7.31 µM [falling, partial curve, poor fit] | –
29 | CCc1ccc(-c2csc(-c3c[nH]c4ccccc34)n2)cc1 | 2.91 µM [rising, partial curve, poor fit] | –
30 | O=C(Nc1nnc(-c2ccco2)o1)c1ccc(Cl)s1 | 12.6 µM [falling, partial curve] | –
31 | Cc1cc(C)c(NS(=O)(=O)c2ccc3c(c2)n(C)c(=O)n3C)c(C)c1 | 7.08 µM [rising, full curve] | –
32 | CCN(CC)CCOc1cccc(C(C)C)c1 | 10.3 µM [rising, partial curve, poor fit] | –
33 | CCC(Sc1nc(=O)cc(N)n1-c1cccc(C)c1)C(=O)Nc1cc(C)on1 (stereo not drawn) | 0.651 µM [falling, full curve, poor fit] | –
34 | Cc1ccc(CNc2ccc([N+](=O)[O-])cc2C(N)=O)cc1 | 18.4 µM [rising, partial curve] | –
35 | O=C(COC(=O)CCCN1C(=O)c2cccc3cccc(c23)C1=O)Nc1ccc(Cl)cc1 | 32.6 µM [rising, partial curve, poor fit] | –
36 | O=C(N/N=C/c1ccc[nH]1)c1ccccc1OCc1ccc(F)cc1 | 17.8 µM [rising, partial curve, poor fit] | –
37 | Cc1cc(C(=O)NN=C(CCC(=O)O)c2cccs2)c(C)o1 | 2.31 µM [falling, partial curve, poor fit] | –
38 | COc1cc(C(=O)OCCn2c(=O)c3c(ncn3CCN(C)C)n(C)c2=O)cc(OC)c1OC | 5.62 µM [rising, full curve] | –
39 | CC1Sc2ccc(S(=O)(=O)N3CCC(C(=O)NCC(C)c4ccccc4)CC3)cc2NC1=O (stereo not drawn) | 35.5 µM [falling, single point] | –
40 | COC(=O)c1[nH]c2ccccc2c1NC(=O)CN1CCN(c2cccc(Cl)c2)CC1 | 35.5 µM [falling, single point] | –
41 | O=C(CSc1nnnn1Cc1ccccc1)Nc1cccc(F)c1 | 6.31 µM [rising, full curve] | –
42 | O=C(C(=O)N1CCN(c2ccccc2)CC1)c1cn(CC(=O)N2CCCCCC2)c2ccccc12 | 14.1 µM [falling, single point] | –

Looked up one by one from the entries so far (two):
Row | SMILES | AC50 [1] | AC50 [2]
41 | O=C(CSc1nnnn1Cc1ccccc1)Nc1cccc(F)c1 | 6.31 µM [rising, full curve] | –
25 | COC(=O)c1c(-c2ccccc2)csc1NC(=O)c1ccco1 | 1.41 µM [rising, full curve, poor fit] | –

Entries of single compounds, quoted from the list:
`Cc1csc(NC(=O)/C=C/c2ccc3c(c2)OCO3)n1` as listed: AC50 [1]: 13 µM [falling, partial curve]; AC50 [2]: 2.91 µM [rising, full curve, poor fit]
`Cc1cc(C)c(NS(=O)(=O)c2ccc3c(c2)n(C)c(=O)n3C)c(C)c1` as listed: AC50 [1]: 7.08 µM [rising, full curve]

Later entries:

Row | SMILES | AC50 [1] | AC50 [2]
43 | Clc1ccc(-c2cnn3c(-c4ccncc4)ccnc23)cc1 | 17.8 µM [rising, partial curve, poor fit] | –
44 | CC(=O)c1cc(C#N)c(SCCC(C)C)nc1C | 9.2 µM [rising, partial curve, poor fit] | 29.1 µM [falling, partial curve, poor fit]
45 | COCCN(CC(=O)Nc1ccccc1C)S(=O)(=O)c1ccc(S(=O)(=O)N2CCCC2)cc1 | 32.6 µM [rising, single point] | –
46 | Cc1nnc(NC(=O)Nc2ccc(Cl)c(Cl)c2)s1 | 25.9 µM [rising, single point] | –
47 | COc1ccccc1CN1CCc2c([nH]c3ccccc23)C1 | 28.2 µM [rising, partial curve, poor fit] | –
48 | O=c1[nH]c2cc3c(cc2cc1CN(Cc1ccccc1)Cc1nnnn1Cc1ccco1)OCCO3 | 35.5 µM [falling, single point] | –
49 | Cc1[nH]c2ccccc2c1C(=O)CSc1nc2ccccc2[nH]1 | 3.98 µM [rising, partial curve, poor fit] | –
50 | CCC(C)(C)n1nnnc1C(c1ccncc1)N1CCC(Cc2ccccc2)CC1 (stereo not drawn) | 0.206 µM [rising, full curve, poor fit] | –
51 | Cc1cccc(N=C2NC(=O)/C(=C/c3cccs3)S2)c1 | 16.4 µM [falling, partial curve] | –
52 | CNC[C@H]1Oc2ccc(NC(=O)Nc3ccccc3)cc2CC(=O)N([C@H](C)CO)C[C@H]1C | 23.1 µM [rising, partial curve, poor fit] | –
53 | COc1ccc(S(=O)(=O)N2CCN(C(=O)c3cc(-c4ccccc4OC)n[nH]3)CC2)cc1 | 7.94 µM [falling, partial curve] | –
54 | CN(C)c1ccc(NC(=O)Nc2cccc3ccccc23)cc1 | 11.2 µM [falling, partial curve] | –
55 | CCCCCc1nnc(NC(=O)c2ccc3nc[nH]c3c2)s1 | 11.6 µM [rising, partial curve, poor fit] | –
56 | CCc1ccc(OCCNC(=O)c2ccccc2SCc2ccc(F)cc2)cc1 | 20 µM [falling, partial curve, poor fit] | –
57 | CN(C)c1nc(C=C(C#N)C#N)c(Cl)n1-c1ccc(F)cc1 | – | 25.1 µM [falling, single point]
58 | O=C1/C(=C/c2ccccc2)N=C(N2CCOCC2)N1c1cccc(Cl)c1 | 4.61 µM [rising, partial curve] | –
59 | NC(=S)Nc1cnc2ccccc2c1 | 29.1 µM [rising, single point] | –
60 | CCc1ccccc1NC(=S)NC1CC2CCC(C1)N2Cc1ccc(F)cc1 (stereo not drawn) | 15.8 µM [falling, single point] | –
61 | O=C(CCNS(=O)(=O)c1cccs1)N1CCN(c2cccc(C(F)(F)F)c2)CC1 | 6.51 µM [falling, partial curve, poor fit] | –
62 | O=C(NC1CCCCCC1)C(Cc1ccccc1)n1cccc1 (stereo not drawn) | 8.91 µM [rising, partial curve, poor fit] | –
63 | COC(=O)C1=C(C)N(c2ccc(F)c(Cl)c2)C(=O)C1 | 5.17 µM [falling, full curve, poor fit] | –
